Source: article PMC8322090
No constants are given. Whether binding was seen depends on the method and setting. In cells and extracts the contact can be indirect. A yes stands for co-enrichment or nearness to the bait. Other partners may have been found.

Protein sequences, listed by entry. Tags and fused reporters are not part of them.
UniProt Q13309: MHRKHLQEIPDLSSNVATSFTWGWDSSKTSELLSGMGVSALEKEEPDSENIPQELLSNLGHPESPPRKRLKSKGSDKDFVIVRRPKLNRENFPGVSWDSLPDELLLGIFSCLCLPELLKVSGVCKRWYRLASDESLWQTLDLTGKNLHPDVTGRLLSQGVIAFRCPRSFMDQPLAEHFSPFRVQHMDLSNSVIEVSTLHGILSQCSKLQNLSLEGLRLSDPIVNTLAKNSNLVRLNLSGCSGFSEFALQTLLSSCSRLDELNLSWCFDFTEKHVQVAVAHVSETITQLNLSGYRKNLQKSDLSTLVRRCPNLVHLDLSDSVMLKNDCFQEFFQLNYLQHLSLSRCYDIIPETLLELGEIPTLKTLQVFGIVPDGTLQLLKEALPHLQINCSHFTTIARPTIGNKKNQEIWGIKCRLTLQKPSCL
UniProt Q9UKV5: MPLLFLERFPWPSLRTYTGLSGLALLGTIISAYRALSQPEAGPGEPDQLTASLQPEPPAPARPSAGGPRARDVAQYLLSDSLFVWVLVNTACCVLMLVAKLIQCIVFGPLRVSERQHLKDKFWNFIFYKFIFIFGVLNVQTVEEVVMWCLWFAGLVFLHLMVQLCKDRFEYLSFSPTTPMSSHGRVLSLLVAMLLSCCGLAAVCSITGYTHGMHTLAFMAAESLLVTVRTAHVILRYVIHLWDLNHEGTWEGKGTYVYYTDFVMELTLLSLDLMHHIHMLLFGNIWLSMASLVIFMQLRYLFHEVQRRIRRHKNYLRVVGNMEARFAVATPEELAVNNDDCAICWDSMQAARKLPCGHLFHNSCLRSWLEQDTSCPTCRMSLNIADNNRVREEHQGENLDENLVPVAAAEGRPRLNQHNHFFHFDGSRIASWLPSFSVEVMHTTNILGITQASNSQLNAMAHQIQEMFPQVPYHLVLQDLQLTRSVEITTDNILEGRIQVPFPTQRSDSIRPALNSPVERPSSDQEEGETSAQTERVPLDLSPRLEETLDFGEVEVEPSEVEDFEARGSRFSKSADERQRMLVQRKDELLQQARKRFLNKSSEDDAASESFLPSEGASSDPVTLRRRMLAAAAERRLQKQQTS
UniProt Q06587: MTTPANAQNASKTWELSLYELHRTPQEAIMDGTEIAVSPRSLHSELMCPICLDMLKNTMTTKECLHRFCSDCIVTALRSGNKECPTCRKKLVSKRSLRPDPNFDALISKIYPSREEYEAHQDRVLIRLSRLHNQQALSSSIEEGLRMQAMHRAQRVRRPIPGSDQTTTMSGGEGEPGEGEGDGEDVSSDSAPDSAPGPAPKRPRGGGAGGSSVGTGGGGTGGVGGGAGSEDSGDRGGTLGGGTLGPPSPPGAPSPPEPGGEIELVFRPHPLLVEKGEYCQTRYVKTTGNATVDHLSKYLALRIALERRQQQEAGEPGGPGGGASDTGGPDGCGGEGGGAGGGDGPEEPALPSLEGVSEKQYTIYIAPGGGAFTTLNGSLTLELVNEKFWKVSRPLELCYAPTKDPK
UniProt Q99496: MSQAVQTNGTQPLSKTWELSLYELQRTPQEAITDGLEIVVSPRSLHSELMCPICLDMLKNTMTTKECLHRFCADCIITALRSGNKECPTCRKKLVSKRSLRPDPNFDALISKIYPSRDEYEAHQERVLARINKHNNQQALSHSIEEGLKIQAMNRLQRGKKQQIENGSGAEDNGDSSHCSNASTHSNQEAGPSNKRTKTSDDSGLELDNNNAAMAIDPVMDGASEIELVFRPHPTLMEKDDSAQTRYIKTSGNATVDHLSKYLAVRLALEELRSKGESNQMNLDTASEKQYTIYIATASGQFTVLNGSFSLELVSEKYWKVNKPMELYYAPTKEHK
UniProt O95071: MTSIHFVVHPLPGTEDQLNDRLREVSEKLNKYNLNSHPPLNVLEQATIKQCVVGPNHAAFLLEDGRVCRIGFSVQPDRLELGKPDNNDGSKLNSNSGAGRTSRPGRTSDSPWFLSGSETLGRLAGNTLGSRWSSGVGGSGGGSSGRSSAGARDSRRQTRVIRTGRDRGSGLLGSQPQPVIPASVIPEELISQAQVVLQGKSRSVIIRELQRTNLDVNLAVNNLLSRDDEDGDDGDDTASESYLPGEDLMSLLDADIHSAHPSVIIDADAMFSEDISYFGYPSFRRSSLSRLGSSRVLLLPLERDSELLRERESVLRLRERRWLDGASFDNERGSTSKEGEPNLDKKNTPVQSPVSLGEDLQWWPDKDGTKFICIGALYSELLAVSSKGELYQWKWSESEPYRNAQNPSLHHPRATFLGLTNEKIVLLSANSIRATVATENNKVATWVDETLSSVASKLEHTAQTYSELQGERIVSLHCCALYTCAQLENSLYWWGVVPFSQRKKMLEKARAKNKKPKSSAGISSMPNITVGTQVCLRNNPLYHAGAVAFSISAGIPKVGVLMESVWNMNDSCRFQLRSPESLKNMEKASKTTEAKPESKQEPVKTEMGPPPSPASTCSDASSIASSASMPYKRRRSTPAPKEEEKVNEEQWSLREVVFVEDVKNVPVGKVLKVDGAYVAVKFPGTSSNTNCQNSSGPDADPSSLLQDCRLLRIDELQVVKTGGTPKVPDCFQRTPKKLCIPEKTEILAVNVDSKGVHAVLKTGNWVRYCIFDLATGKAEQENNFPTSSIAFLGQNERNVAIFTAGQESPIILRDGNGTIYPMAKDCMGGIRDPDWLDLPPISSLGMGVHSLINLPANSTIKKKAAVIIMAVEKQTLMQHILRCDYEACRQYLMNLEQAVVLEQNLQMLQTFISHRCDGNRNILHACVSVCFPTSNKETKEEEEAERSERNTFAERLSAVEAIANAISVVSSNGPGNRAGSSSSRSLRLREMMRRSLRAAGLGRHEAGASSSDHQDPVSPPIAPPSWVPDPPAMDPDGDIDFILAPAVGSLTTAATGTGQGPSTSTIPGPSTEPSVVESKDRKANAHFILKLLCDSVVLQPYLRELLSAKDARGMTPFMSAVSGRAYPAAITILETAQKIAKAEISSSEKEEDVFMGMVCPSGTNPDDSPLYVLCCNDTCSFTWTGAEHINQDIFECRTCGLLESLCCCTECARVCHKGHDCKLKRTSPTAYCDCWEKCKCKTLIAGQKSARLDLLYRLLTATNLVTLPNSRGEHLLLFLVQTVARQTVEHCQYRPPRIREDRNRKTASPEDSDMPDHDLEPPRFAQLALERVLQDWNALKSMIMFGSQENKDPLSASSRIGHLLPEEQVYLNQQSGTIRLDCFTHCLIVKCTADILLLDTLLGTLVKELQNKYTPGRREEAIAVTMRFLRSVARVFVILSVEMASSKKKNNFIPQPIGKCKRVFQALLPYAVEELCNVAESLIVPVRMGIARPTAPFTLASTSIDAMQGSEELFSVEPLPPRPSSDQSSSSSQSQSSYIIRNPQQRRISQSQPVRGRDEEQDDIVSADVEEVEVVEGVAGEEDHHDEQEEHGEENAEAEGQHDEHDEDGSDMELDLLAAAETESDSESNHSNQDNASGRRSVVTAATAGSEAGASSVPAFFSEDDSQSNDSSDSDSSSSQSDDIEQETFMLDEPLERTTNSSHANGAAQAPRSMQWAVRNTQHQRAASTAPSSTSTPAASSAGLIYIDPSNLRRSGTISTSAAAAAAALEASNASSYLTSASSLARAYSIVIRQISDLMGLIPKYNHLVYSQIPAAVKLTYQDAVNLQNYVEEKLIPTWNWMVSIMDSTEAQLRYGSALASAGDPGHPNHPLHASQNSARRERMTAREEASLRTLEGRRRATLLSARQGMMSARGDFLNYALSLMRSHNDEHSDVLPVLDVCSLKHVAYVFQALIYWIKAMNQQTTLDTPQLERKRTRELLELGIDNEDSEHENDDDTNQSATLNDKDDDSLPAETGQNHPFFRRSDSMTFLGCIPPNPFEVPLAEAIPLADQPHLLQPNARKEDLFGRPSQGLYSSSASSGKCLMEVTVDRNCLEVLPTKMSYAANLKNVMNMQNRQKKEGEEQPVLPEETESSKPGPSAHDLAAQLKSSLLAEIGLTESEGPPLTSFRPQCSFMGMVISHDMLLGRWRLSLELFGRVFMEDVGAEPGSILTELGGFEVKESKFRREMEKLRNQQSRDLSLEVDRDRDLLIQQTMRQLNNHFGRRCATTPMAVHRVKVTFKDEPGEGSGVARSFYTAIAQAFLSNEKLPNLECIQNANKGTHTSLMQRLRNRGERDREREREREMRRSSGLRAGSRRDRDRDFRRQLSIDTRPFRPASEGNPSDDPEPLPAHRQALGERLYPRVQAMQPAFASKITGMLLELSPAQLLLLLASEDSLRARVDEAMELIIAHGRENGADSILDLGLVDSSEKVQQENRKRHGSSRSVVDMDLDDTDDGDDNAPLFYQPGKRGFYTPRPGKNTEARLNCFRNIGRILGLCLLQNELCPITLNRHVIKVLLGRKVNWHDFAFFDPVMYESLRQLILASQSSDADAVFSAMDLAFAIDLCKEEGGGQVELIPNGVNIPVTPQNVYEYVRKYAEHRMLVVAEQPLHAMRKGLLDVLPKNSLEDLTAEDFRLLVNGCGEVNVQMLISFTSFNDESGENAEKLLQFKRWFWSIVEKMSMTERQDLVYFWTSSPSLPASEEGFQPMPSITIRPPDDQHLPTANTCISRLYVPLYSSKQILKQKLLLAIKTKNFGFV

B1: RNF219 (protein, UniProt Q5W0B1 1-726)
chain: MAQTVQNVTLSLTLPITCHICLGKVRQPVICINNHVFCSICIDLWLKNNSQCPACRVPITPENPCKEIIGGTSESEPMLSHTVRKHLRKTRLELLHKEYEDEIDCLQKEVEELKSKNLSLESQIKTILDPLTLVQGNQNEDKHLVTDNPSKINPETVAEWKKKLRTANEIYEKVKDDVDKLKEANKKLKLENGGLVRENLRLKAEVDNRSPQKFGRFAVAALQSKVEQYERETNRLKKALERSDKYIEELESQVAQLKNSSEEKEAMNSICQTALSADGKGSKGSEEDVVSKNQGDSARKQPGSSTSSSSHLAKPSSSRLCDTSSARQESTSKADLNCSKNKDLYQEQVEVMLDVTDTSMDTYLEREWGNKPSDCVPYKDEELYDLPAPCTPLSLSCLQLSTPENRESSVVQAGGSKKHSNHLRKLVFDDFCDSSNVSNKDSSEDDISRSENEKKSECFSSPKTGFWDCCSTSYAQNLDFESSEGNTIANSVGEISSKLSEKSGLCLSKRLNSIRSFEMNRTRTSSEASMDAAYLDKISELDSMMSESDNSKSPCNNGFKSLDLDGLSKSSQGSEFLEEPDKLEEKTELNLSKGSLTNDQLENGSEWKPTSFFLLSPSDQEMNEDFSLHSSSCPVTNEIKPPSCLFQTEFSQGILLSSSHRLFEDQRFGSSLFKMSSEMHSLHNHLQSPWSTSFVPEKRNKNVNQSTKRKIQSSLSSASPSKATKS

The molecules below were run against SKP2, bait of the proteomic analysis of SKP2-interacting proteins (UniProt Q13309) (assay: affinity purification with mass spectrometry; proteomic analysis of SKP2-interacting proteins after STA-9090 and MG132 treatment).

binding, binds:
AMFR (from UniProt Q9UKV5 1-643), RING1 (from UniProt Q06587 1-406), RNF2 (from UniProt Q99496 1-336), UBR5 (from UniProt O95071 1-2799), B1
